{"source": "PubChem BioAssay AID1487", "about": "(National Center for Advancing Translational Sciences (NCATS), 2009)", "note": "Hit rate of the full screen: of about 200,000 compounds, about 25 (0.01%) were called active. Inconclusive results, whose numbers are uncertain, are shown with a selection of clear calls. The call rests on the fitted dose curve; in most records, active means well fitted inhibition curve with a large enough effect in the signal ratio, with a control signal flat (not every such curve was filed as active); inconclusive means small, poorly fitted or top-dose-only effect, or effect the other way, or a change in a side signal; inactive means flat fitted curve, though single readings scatter; the % refers to the signal ratio. Where the call is inconclusive, the potency comes from a doubtful curve fit. On the % scale 0 is the no-effect control and ±100 the full control effect; potency means the concentration at half of the fitted maximal effect."}
{"assay": "qHTS Assay for Modulators of Lamin A Splicing", "details": "HeLa LMNA splicing GFP/RFP minigene ratio, 48 h; ratio change, negative = inhibition: at 46.1 µM (top of the series) unless noted", "outline": "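S3 HeLa cells stably expressing lamin A-EGFP splicing minigene plus DsRed2, 600 cells/well, 48 h compound exposure at 37C. Laser-scanning cytometry; analysed as GFP (500-530 nm)/RFP (575-640 nm) total intensity ratio; 0.5% DMSO vehicle.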"}
{"compound": "O=Cc1cn(Cc2cccc(F)c2)c2ccccc12", "Potency": "inconclusive: 15.8 µM [fluorescent, single point]"}
{"compound": "N#Cc1c(Cl)nc(Cl)c2c1CCN(Cc1ccccc1)C2", "ratio change, negative = inhibition": "inconclusive: 4.54%"}
{"compound": "CC1(C)CC(=O)C(C=NCCN2CCN(C(=O)Cc3ccc(F)cc3)CC2)=C(O)C1", "ratio change, negative = inhibition": "inactive: -3.09%"}
{"compound": "COC(=O)c1ccccc1NC(=O)c1cccn(Cc2cccc(Cl)c2)c1=O", "ratio change, negative = inhibition": "inconclusive: -17.2% [at 46 µM]"}
{"compound": "CC1CC(C)CN(CC(=O)c2ccc(OC(F)F)cc2)C1", "note": "(centres undefined)", "ratio change, negative = inhibition": "inconclusive: -9.54%"}
{"compound": "CCC(C)(C)n1nnnc1C(c1cccs1)N1CC=C(c2ccc(F)cc2)CC1", "note": "(centres undefined)", "ratio change, negative = inhibition": "inconclusive: -15.1%"}
{"compound": "CCOC(=O)c1c(NC(NC(=O)CF)C(Cl)(Cl)Cl)sc2c1CCCC2", "note": "(centres undefined)", "Potency": "inconclusive: 35.5 µM [fluorescent, single point]"}
{"compound": "Cc1c(Cl)c(=O)oc2cc(OP(=O)(OCCCl)OCCCl)ccc12", "ratio change, negative = inhibition": "inconclusive: -6.64%"}
{"compound": "Cc1cccc(C)c1NC(=O)CN(C)CC(=O)Nc1ccc(C#N)c(Cl)c1", "Potency": "inconclusive: 11.2 µM [fluorescent, single point]"}
{"compound": "CCCNS(=O)(=O)c1ccc(OCC(=O)N2CCN(Cc3ccc4c(c3)OCO4)CC2)cc1", "Potency": "inconclusive: 10 µM [fluorescent, partial curve]"}
{"compound": "Nc1ccc(N)cc1", "ratio change, negative = inhibition": "inconclusive: -17.2%"}
{"compound": "Cc1cccc(C)c1NC1=NCCCS1", "ratio change, negative = inhibition": "inconclusive: -14.6%"}
{"compound": "CCNC(=O)[C@H]1O[C@@H](n2cnc3c(N)ncnc32)[C@H](O)[C@@H]1O", "ratio change, negative = inhibition": "inconclusive: 24.6% [at 46 µM]"}
{"compound": "CC1CN(c2cc([N+](=O)[O-])ccc2Cl)CC(C)N1", "note": "(centres undefined)", "ratio change, negative = inhibition": "inconclusive: 3.59% [at 46 µM]"}
{"compound": "CC(N=Cc1c(O)[nH]c(=O)[nH]c1=O)c1ccccc1", "note": "(centres undefined)", "ratio change, negative = inhibition": "inconclusive: 12.1%"}
{"compound": "O=C1NC(=O)C2(Cc3ccccc3N3CCCC32)C(=O)N1c1ccc(Cl)cc1", "note": "(centres undefined)", "ratio change, negative = inhibition": "inconclusive: -5.56%"}
{"compound": "Fc1ccccc1CNC1CN2CCC1CC2", "note": "(centres undefined)", "ratio change, negative = inhibition": "inactive: 7.67% [at 46 µM]"}
{"compound": "Cc1c(N=Cc2c(O)n(Cc3ccccc3)c(=O)[nH]c2=O)c(=O)n(-c2ccccc2)n1C", "ratio change, negative = inhibition": "inactive: -1.32%"}
{"compound": "CC1=C(C(=O)OC(C)C)[C@]2(C(=O)N(CC(N)=O)c3ccccc32)C(C#N)=C(N)O1", "ratio change, negative = inhibition": "inactive: -15%"}
{"compound": "O=c1[nH]c(=O)n(Cl)c(=O)n1Cl", "ratio change, negative = inhibition": "inconclusive: -19.8%"}
{"compound": "CCCOc1ccccc1C1SCC(=O)Nc2c1c(=O)[nH]n2C(C)CCC", "note": "(centres undefined)", "ratio change, negative = inhibition": "inconclusive: 12.1%"}
{"compound": "CN1OC[C@@H]2COc3ccc4ccccc4c3[C@@H]21", "ratio change, negative = inhibition": "inconclusive: 14.6% [at 46 µM]"}
{"compound": "CC(C)(C)c1cc([N+](=O)[O-])cc(C(C)(C)C)c1O", "ratio change, negative = inhibition": "inconclusive: -28.2% [at 46 µM]"}
{"compound": "C/C=C1\\C[N@@+]2(C)CC[C@@]34C(=C(C=O)[C@H]1C[C@H]32)Nc1ccccc14", "ratio change, negative = inhibition": "inconclusive: -11.7%"}
{"compound": "NC(=O)CN1CCCC1=O", "ratio change, negative = inhibition": "inconclusive: -15%"}
{"compound": "O=[N+]([O-])OC1CO[C@H]2C(O[N+](=O)[O-])COC12", "note": "(some centres undefined)", "ratio change, negative = inhibition": "inconclusive: -21.3%"}
{"compound": "Cc1cc(N2CCCCC2)ccc1C=C1C(=O)N(C)C(=S)N(C)C1=O", "ratio change, negative = inhibition": "inactive: -0.719%"}
{"compound": "CC(C)NC(C)C", "ratio change, negative = inhibition": "inconclusive: 9.32%"}
{"compound": "CC(=O)NBr", "ratio change, negative = inhibition": "inconclusive: 20.8%"}
{"compound": "Cc1ccc(NC(=O)CN2C(=O)CN=C(c3ccccc3)c3ccccc32)cc1Cl", "ratio change, negative = inhibition": "inconclusive: -35.8% [at 46 µM]"}
{"compound": "Cc1ccccc1-n1c(-c2ccc([N+](=O)[O-])cc2)nc2ccccc2c1=O", "ratio change, negative = inhibition": "inactive: 0.771%"}
{"compound": "Cc1nc2ccccc2c(=O)n1-c1ccccn1", "ratio change, negative = inhibition": "inconclusive: 10.9%"}
{"compound": "C=C(C)CSc1nnc([C@@H](N)Cc2c[nH]c3ccccc23)o1", "ratio change, negative = inhibition": "inactive: 0.673%"}
{"compound": "c1ccc(C2OCCN3CCCCC23)cc1", "note": "(centres undefined)", "ratio change, negative = inhibition": "inconclusive: -7.02%"}
{"compound": "O=C(O)COc1ccccc1", "ratio change, negative = inhibition": "inconclusive: 2%"}
{"compound": "O=C1NC(=O)N(c2ccccc2)C(=O)/C1=C/c1ccc([N+](=O)[O-])s1", "Potency": "inconclusive: 20 µM [inhibitor, partial curve]"}
{"compound": "C=CCn1c(O)c(C(CC)=Nc2ccc(N(CC)CC)cc2)c(=O)[nH]c1=O", "Potency": "inconclusive: 25.1 µM [fluorescent, single point]"}
{"compound": "Fc1ccc2c(c1)nnn2C1CCN(Cc2nnnn2C2CCCCC2)CC1", "ratio change, negative = inhibition": "inactive: 1.39%"}
{"compound": "CCCCC1(CCCC)C(=O)NC(=Nc2cccc(C)c2)NC1=O", "ratio change, negative = inhibition": "inconclusive: -1.87%"}
{"compound": "Cc1ccc(C)c(N2CCN(c3ncnc4onc(C)c34)CC2)c1", "Potency": "inconclusive: 6.31 µM [inhibitor, full curve]"}
{"compound": "CCN(CC)c1ccc(N=Cc2c(O)n(-c3cc(OC)ccc3OC)c(=O)[nH]c2=O)cc1", "Potency": "inconclusive: 11.2 µM [fluorescent, partial curve]"}
{"compound": "C[C@]12CC[C@H](O)CC1=CCC1C2CC[C@]2(C)C(=O)CC[C@@H]12", "note": "(some centres undefined)", "ratio change, negative = inhibition": "inconclusive: 8.79%"}
{"compound": "Cc1ccsc1C(=O)C1CCCN(Cc2ccccc2O)C1", "note": "(centres undefined)", "ratio change, negative = inhibition": "inconclusive: -9.02% [at 46 µM]"}
{"compound": "Cc1cccc(N2C(=O)NC(=O)C3(Cc4cc(C)ccc4N(C)C3)C2=O)c1", "note": "(centres undefined)", "ratio change, negative = inhibition": "inactive: -5.66%"}
{"compound": "CSc1ccccc1C(=O)C1CCCN(Cc2cccc(C)n2)C1", "note": "(centres undefined)", "ratio change, negative = inhibition": "inconclusive: -8.27% [at 46 µM]"}
{"compound": "Cc1cc(NC(=O)COC(=O)c2c(C)nn(Cc3ccccc3)c2C)no1", "ratio change, negative = inhibition": "inactive: -11.4%"}
{"compound": "Cc1cccc(Cn2cccc(C(=O)Nc3ccc(F)cc3F)c2=O)c1", "ratio change, negative = inhibition": "inconclusive: 26.9% [at 46 µM]"}
{"compound": "O=C(c1cc2ccccn2n1)N1CCC2(CC1)OCCO2", "ratio change, negative = inhibition": "inactive: 4.59%"}
{"compound": "Cc1cccc(CN2CCN(c3ccc(Cl)cc3)CC2)c1", "ratio change, negative = inhibition": "inconclusive: -35.8% [at 46 µM]"}
{"compound": "C/C(=N\\NC(=O)c1ccncc1)c1c(O)n(-c2ccccc2)c(=O)[nH]c1=O", "ratio change, negative = inhibition": "inconclusive: 7.39% [at 46 µM]"}
{"compound": "O=C(c1ccc2c(c1)N(Cc1ccc(F)cc1)C(=O)c1ccccc1S2)N1CCC2(CC1)OCCO2", "ratio change, negative = inhibition": "inconclusive: -10.1% [at 46 µM]"}
{"compound": "CN(C)CC/C=C1\\c2ccccc2Sc2ccc(Cl)cc21", "ratio change, negative = inhibition": "inconclusive: -24.5%"}
{"compound": "CCC(=O)c1c(O)n(C2CCCCCC2)c(=O)[nH]c1=O", "Potency": "inconclusive: 35.5 µM [falling, single point]"}
{"compound": "CCN(CC)c1ncnc2c1ncn2[C@@H]1O[C@H](COP(=O)(O)OP(=O)(O)C(Br)(Br)P(=O)(O)O)[C@@H](O)[C@H]1O", "ratio change, negative = inhibition": "inconclusive: -14.3%"}
